Binding data for 2 substances are collected here from article PMC3734113.

Sequences of proteins named here, by UniProt entry; tags and fusion partners are left off.
UniProt P30281: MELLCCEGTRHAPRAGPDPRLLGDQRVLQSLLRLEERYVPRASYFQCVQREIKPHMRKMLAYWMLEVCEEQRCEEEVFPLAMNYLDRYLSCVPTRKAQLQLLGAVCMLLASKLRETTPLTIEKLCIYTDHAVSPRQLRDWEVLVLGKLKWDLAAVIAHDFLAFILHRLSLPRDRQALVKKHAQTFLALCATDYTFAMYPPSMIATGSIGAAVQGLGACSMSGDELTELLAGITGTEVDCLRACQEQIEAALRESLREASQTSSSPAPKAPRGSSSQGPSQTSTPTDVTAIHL
UniProt P38936: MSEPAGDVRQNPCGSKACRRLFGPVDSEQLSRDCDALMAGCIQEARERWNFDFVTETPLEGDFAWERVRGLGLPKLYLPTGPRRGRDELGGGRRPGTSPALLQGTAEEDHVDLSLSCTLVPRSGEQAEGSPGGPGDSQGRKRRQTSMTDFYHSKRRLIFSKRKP

These are yes or no findings as the source states them, for the method shown. Binding seen in cells or lysates may run through a third protein. Some results given as binding are weak or reduced against the parent protein; the word gives no strength.

This experiment addresses cyclin D3 (UniProt P30281). Briefly: co-IP; CHO cells cotransfected with CDK4, cyclin D3, p21 (0.2 or 2 μg vector) and Tax-HA (WT, K346R or K346Q), in part with HDAC7-Flag (1 or 2 μg); lysates immunoprecipitated with anti-cyclin D3 mAb, Western blot with anti-cyclin D3, anti-CDK4, anti-p21 and anti-HA; lysis buffer 150 mM NaCl, 50 mM Tris-HCl pH 7.5, 0.5% Nonidet P-40; 4°C, 3 h. (In general: In western blotting, separated proteins are transferred to a membrane and probed.)

For WT Tax-HA (from UniProt P03409 1-353), the binding entry is given as “binds”.

p21^CIP (from UniProt P38936 1-164): the binding entry is listed as “binds”.
